Laboratory results: PubChem BioAssay AID504764 (Drosophila RNAi Screening Center, 2011)
The deposit covers about 22,000 reagents; this is a random part of those with a known target gene and a result. In the full data, 403 (1.9%) were called active. 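Unnormalised raw counts per well; ratio z-scores behind the hit calls and whether each hit raises or lowers signal are not deposited.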 The numbers tell different reagents against one gene apart. Not given: the amount of reagent.

- Screen: 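Genes whose knock-down alters Notch-dependent transcription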 (primary screen)
- Cell system: Drosophila Kc167 cells
- Knock-down reagent: long dsRNA against Drosophila genes
- Timing: about 5 days (4 days dsRNA, then 24 h after transfection)
- Conditions: transfection of constitutively active membrane-tethered Notch lacking the extracellular domain, read 24 h later
- Measurement: 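Firefly luciferase from an E(spl)m3 reporter with active Notch, plus control-promoter and uninduced reporter wells for normalisation; unnormalised counts, duplicate wells a and b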
- Reading the numbers: induced reporter light, run 1, well a and induced reporter light, run 1, well b: higher = more light from the Notch target reporter with active Notch; control promoter light, run 1, well a and control promoter light, run 1, well b: higher = more light from the viral control promoter (cell number, transfection, viability); uninduced reporter light, run 1, well a: higher = more light from the Notch target reporter without active Notch
- Rule for the call: 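Hit if the duplicate-averaged log2 ratio of induced to control-promoter light gives a plate-wise z beyond ±2, or induced to uninduced beyond ±1.8; weak-control or discordant-duplicate wells dropped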
- Meaning of the calls: active = modifier hit (raised or lowered Notch signal); inactive = not a hit

| Target gene | reagent no. | induced reporter light, run 1, well a | induced reporter light, run 1, well b | control promoter light, run 1, well a | control promoter light, run 1, well b | uninduced reporter light, run 1, well a | call |
| --- | --- | --- | --- | --- | --- | --- | --- |
| CG33223 | 1 | 68940 | 66050 | 80675 | 68355 | 6160 | inactive |
| CG7289 | 1 | 2.27e5 | 2.15e5 | 2.06e5 | 1.61e5 | 21835 | inactive |
| CG31816 | 1 | 55600 | 72600 | 66160 | 62825 | 6435 | inactive |
| CG11454 | 1 | 1.47e5 | 1.68e5 | 1.85e5 | 2.20e5 | 17825 | inactive |
| CG5849 | 1 | 1.77e5 | 1.57e5 | 1.81e5 | 1.77e5 | 10720 | inactive |
| IntS11 | 1 | 1.59e5 | 1.87e5 | 2.78e5 | 2.34e5 | 26335 | active |
| CG9135 | 1 | 1.55e5 | 1.90e5 | 1.68e5 | 1.98e5 | 16405 | inactive |
| CG10589 | 1 | 1.30e5 | 1.66e5 | 1.41e5 | 1.16e5 | 8655 | inactive |
| CG18518 | 1 | 64840 | 58295 | 65645 | 55130 | 7885 | inactive |
| CG42755 (retired record) | 1 | 1.87e5 | 1.87e5 | 1.69e5 | 2.25e5 | 13875 | inactive |
| CG42755 (retired record) | 2 | 1.46e5 | 1.61e5 | 1.97e5 | 1.40e5 | 11280 | inactive |
| CG5687 | 1 | 45760 | 35100 | 55830 | 51760 | 3915 | inactive |
| Amnionless | 1 | 1.50e5 | 1.06e5 | 1.00e5 | 68960 | 9920 | inactive |
| CG4465 | 1 | 2.24e5 | 2.17e5 | 2.04e5 | 2.18e5 | 15490 | inactive |
| kl-3 (retired record) | 1 | 2.12e5 | 2.06e5 | 3.47e5 | 3.72e5 | 16225 | inactive |
| kl-3 (retired record) | 2 | 1.04e5 | 81910 | 1.08e5 | 1.02e5 | 9685 | inactive |
| kl-3 (retired record) | 3 | 3.36e5 | 3.14e5 | 5.79e5 | 4.93e5 | 21795 | inactive |
| Ref1 | 1 | 1.63e5 | 1.29e5 | 83445 | 83265 | 8955 | inactive |
| CG16704 | 1 | 2.63e5 | 2.04e5 | 2.37e5 | 2.40e5 | 11338 | inactive |
| TrpRS-m | 1 | 99440 | 1.29e5 | 77530 | 91390 | 9100 | inactive |
| MAPk-Ak2 | 1 | 1.27e5 | 1.59e5 | 2.17e5 | 2.92e5 | 10500 | inactive |
| CG30284 | 1 | – | – | – | – | – | inactive |

Sorted by “induced reporter light, run 1, well a” (highest first): some entries from above.
| Target gene | reagent no. | induced reporter light, run 1, well a | induced reporter light, run 1, well b | control promoter light, run 1, well a | control promoter light, run 1, well b | uninduced reporter light, run 1, well a | call |
| --- | --- | --- | --- | --- | --- | --- | --- |
| CG4465 | 1 | 2.24e5 | 2.17e5 | 2.04e5 | 2.18e5 | 15490 | inactive |
| CG42755 (retired record) | 1 | 1.87e5 | 1.87e5 | 1.69e5 | 2.25e5 | 13875 | inactive |
| Amnionless | 1 | 1.50e5 | 1.06e5 | 1.00e5 | 68960 | 9920 | inactive |
| CG42755 (retired record) | 2 | 1.46e5 | 1.61e5 | 1.97e5 | 1.40e5 | 11280 | inactive |
| CG5687 | 1 | 45760 | 35100 | 55830 | 51760 | 3915 | inactive |

The list goes on.
| Target gene | reagent no. | induced reporter light, run 1, well a | induced reporter light, run 1, well b | control promoter light, run 1, well a | control promoter light, run 1, well b | uninduced reporter light, run 1, well a | call |
| --- | --- | --- | --- | --- | --- | --- | --- |
| Mpc1 | 1 | 2.61e5 | 2.82e5 | 3.14e5 | 3.21e5 | 17360 | inactive |
| CG4853 | 1 | 1.12e5 | 1.12e5 | 1.93e5 | 1.86e5 | 9610 | inactive |
| mars | 1 | 1.47e5 | 1.80e5 | 1.48e5 | 1.43e5 | 15170 | inactive |
| CG5245 | 1 | 93205 | 80705 | 80205 | 56910 | 6690 | inactive |
| CG17085 (retired record) | 1 | 1.19e5 | 1.56e5 | 73890 | 1.15e5 | 15600 | inactive |
| CG17085 (retired record) | 2 | 99990 | 1.24e5 | 66470 | 1.05e5 | 13665 | inactive |
| Not3 | 1 | 79005 | 70315 | 92220 | 1.03e5 | 7900 | active |
| CG8677 | 1 | 1.35e5 | 1.32e5 | 1.15e5 | 1.49e5 | 10255 | inactive |
| CG14826 | 1 | 1.99e5 | 1.53e5 | 2.29e5 | 2.27e5 | 7995 | inactive |
| CG14853 | 1 | 1.78e5 | 1.64e5 | 1.65e5 | 1.61e5 | 11585 | inactive |
| CG13674 | 1 | 1.14e5 | 1.19e5 | 1.30e5 | 99740 | 6890 | inactive |
| CG7564 | 1 | 2.21e5 | 1.18e5 | 2.15e5 | 2.12e5 | 5628 | inactive |
| MED19 | 1 | 35195 | 40180 | 17125 | 18675 | 5280 | inactive |
| eRF3 | 1 | 60890 | 80355 | 83660 | 85455 | 7590 | inactive |
| lic | 1 | 1.65e5 | 1.42e5 | 1.75e5 | 1.99e5 | 16595 | inactive |
| CG12347 | 1 | 1.78e5 | 1.59e5 | 1.89e5 | 2.06e5 | 14580 | inactive |
| CG30384 | 1 | 2.05e5 | 2.27e5 | 2.69e5 | 1.97e5 | 18525 | inactive |
| Sod2 | 1 | 1.22e5 | 1.01e5 | 2.07e5 | 1.90e5 | 9095 | inactive |
| CG1774 | 1 | 1.59e5 | 1.76e5 | 2.59e5 | 2.58e5 | 10835 | inactive |
| Duba | 1 | 1.02e5 | 1.08e5 | 80310 | 41635 | 11005 | inactive |
| Pgant1 | 1 | 93845 | 1.05e5 | 1.20e5 | 98425 | 6855 | inactive |
| Eogt | 1 | 1.43e5 | 1.33e5 | 1.27e5 | 1.39e5 | 15150 | inactive |
| CG18480 | 1 | 3.49e5 | 2.67e5 | 2.98e5 | 2.92e5 | 21320 | inactive |
| RpLP2 | 1 | 6965 | 8020 | 11545 | 8755 | 1110 | inactive |
| CG1738 | 1 | 1.20e5 | 1.32e5 | 2.03e5 | 2.14e5 | 8192 | inactive |
| Dlip1 | 1 | 63915 | 61975 | 78365 | 80400 | 4655 | inactive |
| CG13324 | 1 | 96510 | 1.19e5 | 1.18e5 | 92555 | 10380 | inactive |
| mtm | 1 | 32710 | 39980 | 27100 | 28745 | 2810 | inactive |
